Laboratory results reported in PubChem BioAssay AID493014 (National Center for Advancing Translational Sciences (NCATS), 2011).
The whole screen tested about 340,000 compounds, of which about 170 (0.05%) were called active. Inconclusive results, whose numbers are uncertain, are shown with a selection of clear calls. Calls come from the whole dose curve; as a rule, active = well fitted inhibition curve with a large enough effect in the signal ratio, with a control signal flat (not every such curve was filed as active); inconclusive = small, poorly fitted or top-dose-only effect, or effect the other way, or a change in a side signal; inactive = flat fitted curve, though single readings scatter; the % refers to the signal ratio. Potencies beside an inconclusive call are fits to weak or partial responses and may not hold up.

Assay: qHTS Assay to Find Inhibitors of Chronic Active B-Cell Receptor Signaling;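 for activity change, negative = inhibition: plate controls were basal doxycycline-induced cells for no effect and cells given 10 µM MG132 for full effect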
Settings: ABC-DLBCL IkBa-CBG/CBR reporter, luminescence ratio (green luciferase fused to IkBa over red control in TMD8 lymphoma cells), 4 h; activity change, negative = inhibition: at 46.1 µM (top of the series) unless noted
Procedure, shortened: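 TMD8 ABC-DLBCL cells carrying doxycycline-inducible green luciferase fused to IkappaBalpha plus unfused red luciferase were exposed to compounds (up to 46 uM) for 4 hrs at 37C. Activity came from the overlap-corrected green/red luminescence ratio.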
Potency is the fitted concentration of half-maximal effect.

Row | SMILES | activity change, negative = inhibition | Potency
1 | C=C(C(=O)Nc1ccccc1)c1ccc(C)cc1 | inactive: 2.27% | 
2 | Cc1ccc(NC(=O)CN(C)C(=O)Cc2ccc3c(c2)CCC3)cc1 | inactive: 6.51% | 
3 | CC(=O)Nc1cc(NC(C)=O)cc(C(=O)OCC(=O)N(c2ccccc2)C2CCS(=O)(=O)C2)c1 (centres undefined) | inconclusive: -0.686% | 
4 | CNc1nc(N2CCc3ccccc32)ncc1F | inconclusive: 2.47% | 
5 | C=CCc1ccccc1OCC(=O)NNC(=S)NCc1ccccc1 | inconclusive: -3.03% | 
6 | CCC(=O)N1CCc2cc(S(=O)(=O)N3CCc4ccccc4C3)ccc21 | inactive: 4.03% | 
7 | COc1ccc2c(=O)c(C(=O)NCCc3ccccc3)c[nH]c2c1 | inconclusive: -18% | 
8 | O=C(CNCC1CCCO1)N1CCCc2ccccc21 (centres undefined) | inconclusive: 17.4% | 
9 | O=c1c(-c2ccc(Cl)cc2)coc2c(CN3CCOCC3)c(O)ccc12 | inactive: 0.898% | 
10 | Cc1ccc(-n2nnc(-c3cnc4ccccc4c3)n2)cc1 |  | inconclusive: 22.4 µM [falling, single point]
11 | Cc1nc2ccccn2c1C(=O)NNC(=S)Nc1ccccc1 |  | inconclusive: 28.2 µM [falling, single point]
12 | O=C(c1cccc(NS(=O)(=O)c2ccc(Br)cc2)c1)N1CCCCC1 | inconclusive: -13.8% | 
13 | CCOc1ccc(S(=O)(=O)NCCC(=O)NCCc2ccc(C(C)C)cc2)cc1 |  | inconclusive: 23.1 µM [falling, single point]
14 | CCn1c(C)nc2c(C)[n+](CC(=O)c3ccc(Br)cc3)ccc21 |  | inconclusive: 3.55 µM [falling, partial curve]
15 | COc1ccc(NC(=O)c2cccnc2)cc1 | inconclusive: 0.0176% | 
16 | COc1ccc(NS(=O)(=O)c2ccc(OC)c(N(C)S(=O)(=O)c3ccc(Cl)cc3)c2)cc1 | inconclusive: 7.84% | 
17 | c1ccc(CSc2ncnc3c2cnn3-c2ccccc2)cc1 | inconclusive: 15.6% | 
18 | COc1ccc(C(=O)N/N=C/c2sc3ccccc3c2O)cc1 |  | inconclusive: 3.66 µM [cytotoxic, full curve]
19 | COC(=O)c1ccccc1NC(=O)CSc1nc2ccsc2c(=O)n1CCC(C)C | inactive: -4.43% | 
20 | S=C(N/N=C/c1ccc(Cl)c(Cl)c1)Nc1ccccc1Cl |  | inconclusive: 2 µM [falling, full curve]
21 | CCOc1ccc(/C=C2\SC(=S)N(C(C(=O)O)c3ccccc3)C2=O)cc1OC (centres undefined) | inconclusive: 8.8% | 
22 | Cc1ccc2[nH]c3c(=S)nc[nH]c3c2c1 | inconclusive: 7.86% | 
23 | O=C1CC(c2ccccc2)CC(O)=C1C=Nc1ccc(O)cc1 (centres undefined) |  | inconclusive: 17.8 µM [falling, partial curve, poor fit]
24 | Cc1cccc(/C=C(\c2nc3ccccc3[nH]2)S(=O)(=O)c2ccccc2)c1 |  | inconclusive: 3.26 µM [falling, single point]
25 | [O-][n+]1onc2c1CCc1c-2nn(-c2ccccc2Cl)[n+]1[O-] | inconclusive: -0.945% | 
26 | Cc1cccc(C)c1NC(=O)CN(c1ccccn1)S(=O)(=O)c1ccc(F)cc1 | inconclusive: 10.8% | 
27 | CCOc1ccc(N2C(=O)c3ccccc3C2O)cc1 (centres undefined) |  | inconclusive: 11.6 µM [falling, partial curve]

Ordered by number of heavy atoms (descending): some entries from above
Row | SMILES | activity change, negative = inhibition | Potency
3 | CC(=O)Nc1cc(NC(C)=O)cc(C(=O)OCC(=O)N(c2ccccc2)C2CCS(=O)(=O)C2)c1 (centres undefined) | inconclusive: -0.686% | 
21 | CCOc1ccc(/C=C2\SC(=S)N(C(C(=O)O)c3ccccc3)C2=O)cc1OC (centres undefined) | inconclusive: 8.8% | 
8 | O=C(CNCC1CCCO1)N1CCCc2ccccc21 (centres undefined) | inconclusive: 17.4% | 

Next part:

Row | SMILES | activity change, negative = inhibition | Potency
28 | Cc1ccc(C(=O)OCCc2sc[n+](Cc3ccccc3)c2C)cc1 |  | inconclusive: 29.1 µM [falling, single point]
29 | CC(C)CN1C(=O)c2ccc(C(=O)NCc3ccccn3)cc2C1=O | inactive: -0.863% | 
30 | Cc1cccc(C(=O)Nc2ccc3c(c2)C(=O)NC3=O)c1 |  | inconclusive: 35.5 µM [falling, single point]
31 | O=C(c1ccccc1)N(Cc1cccc(Br)c1)C1CCS(=O)(=O)C1 (centres undefined) | inactive: 0.374% | 
32 | Cc1cc(Br)ccc1OCc1nc(-c2cccnc2)no1 | inconclusive: 6.02% | 
33 | C/C(=N\NC(=O)CCn1nc(C)cc1C)C(C)(C)C |  | inconclusive: 32.6 µM [falling, partial curve, poor fit]
34 | CC(=O)Nc1ccc(S(=O)(=O)NCCNC(=O)c2ccccc2F)cc1 | inconclusive: -4.9% | 
35 | CN(C)CCNC(=O)C(=O)C1C(=O)Nc2ccccc21 (centres undefined) |  | inconclusive: 22.4 µM [falling, single point]
36 | CC(=O)c1cccc(NC(=O)CSc2nc(C3CC3)nc3ccccc23)c1 | inconclusive: -0.183% | 
37 | CSc1ccc(C2NC(=O)c3c(sc4c3CCN(C)C4)N2)cc1 (centres undefined) | inconclusive: 15% | 
38 | Cc1cc(C(=O)NNC(=O)c2cccc(N(C)C)c2)c(C)o1 |  | inconclusive: 11.2 µM [falling, partial curve]
39 | O=C(Nc1cccn2ncnc12)c1ccccc1 |  | inconclusive: 12.6 µM [falling, partial curve]
40 | CN(C1=NC(=O)C(CC(=O)Nc2ccc(Br)cc2)S1)c1ccc(O)cc1 (centres undefined) |  | inconclusive: 23.1 µM [falling, single point]
41 | Cc1nnc2sc(-c3ccc(NC(=O)CSc4ccc(Cl)cc4)cc3)nn12 | inconclusive: 11.3% | 
42 | Cc1ccccc1OCc1nc2ccccc2c(=O)n1/N=C/c1cccc([N+](=O)[O-])c1 | inconclusive: -4.81% | 
43 | Cc1cccc(N2CCN(S(=O)(=O)c3ccc4c(c3)CCN4C(=O)CCC(=O)O)CC2C)c1 (centres undefined) | inconclusive: -0.927% | 
44 | CCCCNS(=O)(=O)c1ccc(NC(=O)c2cccs2)cc1 | inconclusive: -11.2% | 
45 | CCOC(=O)c1c(S(=O)(=O)N2CCCC(C(=O)NCc3ccc(Cl)cc3)C2)c(C)n(C)c1C (centres undefined) | inactive: 19% | 
46 | S=C(NCCN1CCOCC1)Nc1cccc(Cl)c1 | inactive: 3.73% | 
47 | CCn1cc(/C=C/C(=O)Nc2ccn(Cc3c(F)c(F)c(F)c(F)c3F)n2)cn1 | inconclusive: 0.459% | 
48 | COc1ccc(NC(=O)c2cccc(Cl)c2)c[n+]1[O-] | inconclusive: 4.42% | 
49 | Cc1cc(=O)n2nc(N3CCCC(C(=O)Nc4ccc(C)c(C)c4)C3)sc2n1 (centres undefined) | inactive: -0.265% | 
50 | COC(=O)c1ccc(OCC2c3cc(OC)c(OC)cc3CCN2C(=O)COc2ccc(Cl)cc2)cc1 (centres undefined) | inactive: 2.37% | 
51 | Cc1c(-c2cccc(Cl)c2)nc2ccccc2c1C(=O)OCC(=O)Nc1ccc2c(c1)OCO2 |  | inconclusive: 20.6 µM [rising, partial curve, poor fit]
52 | CCCCN(CC)C(=S)Nc1ccc2nc3n(c(=O)c2c1)CCCCC3 | inconclusive: 9.51% | 
53 | C[C@@H]1C[C@H]2[C@@H]3C[C@H](F)C4=CC(=O)C=C[C@]4(C)[C@@]3(F)[C@@H](O)C[C@]2(C)[C@@]1(O)C(=O)CO |  | inconclusive: 3.16 µM [falling, partial curve, poor fit]
54 | COc1ccc(C(C)NC(=S)NCc2ccc(F)cc2)cc1OC (centres undefined) | inactive: -10% | 

Individual results from the list:
COc1ccc(C(C)NC(=S)NCc2ccc(F)cc2)cc1OC (centres undefined) | activity change, negative = inhibition: inactive: -10%
CCCCNS(=O)(=O)c1ccc(NC(=O)c2cccs2)cc1 | activity change, negative = inhibition: inconclusive: -11.2%

Further records follow:

Row | SMILES | activity change, negative = inhibition | Potency
55 | O=C(O)CCC(=O)Nc1nnc(C(F)(F)F)s1 | inconclusive: -115% | 
56 | O=C(COC(=O)c1cccnc1Cl)NCCc1ccccc1 | inconclusive: 4.59% | 
57 | Cc1ccc(-n2c(CC#N)n[nH]c2=S)c(C)c1 | inconclusive: 1.05% | 
58 | CCn1c(CNC(=O)c2ccc(OC)cc2)nnc1SCC(=O)c1ccccc1 | inconclusive: 10.4% | 
59 | O=C1c2ccccc2C(=O)c2c1cccc2N1CCOCC1 | inactive: 4.7% | 
60 | O=C(O)CCSc1ccc([N+](=O)[O-])cc1[N+](=O)[O-] |  | inconclusive: 25.1 µM [falling, partial curve, poor fit]
61 | FC(F)(F)c1cccc(NC(=S)NCc2ccc(Cl)cc2)c1 | inconclusive: 20.7% | 
62 | CC1(C)CC(=O)C(/C=N/c2ncccc2C(=O)O)=C(O)C1 |  | inconclusive: 29.1 µM [falling, single point]
63 | O=C1N[C@H](Cc2ccccc2)COC(=O)[C@@H](Cc2ccc(F)cc2)CC/C=C/C[C@H]1CC(=O)N(CCO)Cc1ccccc1 | inconclusive: -0.484% | 
64 | COc1ccc(Cc2nc3ccccc3[nH]c2=O)cc1 |  | inconclusive: 11.2 µM [falling, partial curve, poor fit]
65 | CCCc1[nH]n(-c2ccc([N+](=O)[O-])cc2)c(=O)c1C=NCCc1c[nH]c2ccccc12 | inconclusive: 1.54% | 
66 | COc1ccccc1/C=C1\CCCC2=C1Nc1nnnn1C2c1ccccc1OC (centres undefined) |  | inconclusive: 23.1 µM [falling, partial curve, poor fit]
67 | COc1ccc(C(=O)Oc2ccc[nH]c2=O)cc1 | inconclusive: -2.24% | 
68 | CC(=O)c1cccc(NC(=O)NN2CCN(C)CC2)c1 | inactive: 3.59% | 
69 | CCN(CC)c1c([N+](=O)[O-])c(=O)n(CC)c2ccccc12 | inconclusive: 0.28% | 
70 | O=C(CSc1nn(-c2ccccc2)c(=S)s1)NC(=O)NCc1ccco1 |  | inconclusive: 1.84 µM [rising, full curve, poor fit]
71 | CN(C)/C=N/c1sc2c(c1C#N)CCCC2 |  | inconclusive: 14.1 µM [falling, partial curve, poor fit]
72 | COc1cccc(CNC(=O)C2Cc3cc(S(=O)(=O)N4CCCC4)ccc3N2C(C)=O)c1OC (centres undefined) | inconclusive: 3.84% | 
73 | O=C1CSC(=Nc2cccc(C(=O)O)c2)N1 |  | inconclusive: 22.4 µM [falling, single point]
74 | Cc1cc(F)ccc1S(=O)(=O)N1CCCOC1CNC(=O)C(=O)NCc1cccnc1 (centres undefined) | inconclusive: -0.39% | 
75 | CCc1cccc(CC)c1N(COC)C(=O)Cn1ccccc1=N | inconclusive: -1.95% | 
76 | C=C(C(=O)c1ccccc1)C(C)CC(=O)c1ccccc1 (centres undefined) | inconclusive: -12.2% | 
77 | Cc1c(Cl)cccc1NC(=O)CSc1nc2c(c(=O)[nH]1)CCCC2 | inconclusive: -14.4% | 
78 | COc1cccc(Oc2ccc(S(=O)(=O)N3CCCC3)cc2[N+](=O)[O-])c1 | inconclusive: 9.86% | 
79 | Cc1ccc(CNC(=O)c2cc(Cl)cc(Cl)c2)n1C | inactive: -1.79% | 
